Measurements: US5045530A, “Pharmaceutical preparations” (priority 1986, dated 1991)
At least one peptide structure holds a part that was inferred or is arguable (an end, a ring closure or a residue). Residues, ends and D or L forms follow the SMILES beside them.

Test system: human polymorphonuclear cells (PMN) and macrophages
Assay: stimulation of phagocytosis in vitro
Format: cell-based
Conditions: for +N^+-Tenside: Number of cells containing more than 20 particles per 100 cells: micellarly included in hexydecylpyridinium chloride; for I: Number of cells containing more than 20 particles per 100 cells: without N+-tenside

## C[C@@H](O)[C@H](N)C(=O)N[C@@H](CCCCN)C(=O)N1CCC[C@H]1C(=O)N[C@@H](CCCNC(=N)N)C(=O)O [Tuftsin] (H-TKPR-OH)
0.05 μg/ml, plasma 30
  +N^+-Tenside: Number of cells containing more than 20 particles per 100 cells: 80 per 100 cells
  I: Number of cells containing more than 20 particles per 100 cells: 60 per 100 cells
0.85 μg/ml
  +N^+-Tenside: Number of cells containing more than 20 particles per 100 cells: 80 per 100 cells
  I: Number of cells containing more than 20 particles per 100 cells: 60 per 100 cells
